Assay results: PMC4499153
Results are given in words; binding and its absence hold for the method and conditions named. In cells and extracts the contact can be indirect. Sequences can lack the tags named with a protein.

Molecular target: T1, FLAG-tagged AFF1, full length (aa 1-1210), P51825
T1 chain: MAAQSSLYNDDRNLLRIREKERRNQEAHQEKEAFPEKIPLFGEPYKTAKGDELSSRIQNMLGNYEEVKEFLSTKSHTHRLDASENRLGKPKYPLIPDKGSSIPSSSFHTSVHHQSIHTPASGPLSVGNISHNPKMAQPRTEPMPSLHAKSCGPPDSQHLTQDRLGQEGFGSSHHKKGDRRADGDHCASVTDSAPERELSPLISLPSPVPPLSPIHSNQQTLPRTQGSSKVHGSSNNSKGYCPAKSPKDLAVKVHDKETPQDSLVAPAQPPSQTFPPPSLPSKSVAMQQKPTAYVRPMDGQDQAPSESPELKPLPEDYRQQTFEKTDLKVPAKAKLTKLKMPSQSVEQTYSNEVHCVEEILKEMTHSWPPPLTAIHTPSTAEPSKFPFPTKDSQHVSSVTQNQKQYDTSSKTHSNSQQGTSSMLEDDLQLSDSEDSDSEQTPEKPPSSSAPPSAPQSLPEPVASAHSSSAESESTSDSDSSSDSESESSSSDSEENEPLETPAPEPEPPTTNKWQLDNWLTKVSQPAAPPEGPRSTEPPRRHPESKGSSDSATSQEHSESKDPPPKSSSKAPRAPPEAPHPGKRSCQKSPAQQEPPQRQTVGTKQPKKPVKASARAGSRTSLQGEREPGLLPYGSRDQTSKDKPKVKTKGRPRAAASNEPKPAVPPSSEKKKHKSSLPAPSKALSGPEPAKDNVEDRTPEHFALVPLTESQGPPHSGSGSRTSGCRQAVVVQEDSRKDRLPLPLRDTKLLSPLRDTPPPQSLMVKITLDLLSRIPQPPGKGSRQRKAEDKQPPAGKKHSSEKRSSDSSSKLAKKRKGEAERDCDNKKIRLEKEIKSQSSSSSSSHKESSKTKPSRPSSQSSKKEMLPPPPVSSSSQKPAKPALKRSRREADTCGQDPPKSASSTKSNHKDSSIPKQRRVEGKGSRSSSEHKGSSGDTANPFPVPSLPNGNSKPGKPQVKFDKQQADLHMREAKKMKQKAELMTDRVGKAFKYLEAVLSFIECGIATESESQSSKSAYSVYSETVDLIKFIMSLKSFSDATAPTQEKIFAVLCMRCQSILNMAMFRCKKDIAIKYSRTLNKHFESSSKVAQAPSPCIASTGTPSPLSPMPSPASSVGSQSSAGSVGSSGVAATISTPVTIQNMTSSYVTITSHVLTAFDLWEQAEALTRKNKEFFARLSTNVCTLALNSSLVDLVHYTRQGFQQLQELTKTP
Assay: co-IP; anti-Flag immunoprecipitation from nuclear extracts of HeLa cells co-transfected with differentially Flag- and HA-tagged AFF1 and AFF4; western blotting (Figure 1A,B)
Settings: remark: other sources report otherwise

- binding: no binding
B1: FLAG-tagged AFF1, full length (aa 1-1210), P51825 1-1210 (protein)
chain: T1 chain
